Reference: patent US7427671 (US Dept. of Health and Human Services, dated 2008)
These are yes or no findings as the source states them, for the method shown. Some binding calls cover weakened binding; strength is not graded here.

Chains of the proteins cited; added tags and fusions are not shown. Lines headed by an entry give the natural chain unless they say otherwise; changes in a name come on top.
UniProt P16234: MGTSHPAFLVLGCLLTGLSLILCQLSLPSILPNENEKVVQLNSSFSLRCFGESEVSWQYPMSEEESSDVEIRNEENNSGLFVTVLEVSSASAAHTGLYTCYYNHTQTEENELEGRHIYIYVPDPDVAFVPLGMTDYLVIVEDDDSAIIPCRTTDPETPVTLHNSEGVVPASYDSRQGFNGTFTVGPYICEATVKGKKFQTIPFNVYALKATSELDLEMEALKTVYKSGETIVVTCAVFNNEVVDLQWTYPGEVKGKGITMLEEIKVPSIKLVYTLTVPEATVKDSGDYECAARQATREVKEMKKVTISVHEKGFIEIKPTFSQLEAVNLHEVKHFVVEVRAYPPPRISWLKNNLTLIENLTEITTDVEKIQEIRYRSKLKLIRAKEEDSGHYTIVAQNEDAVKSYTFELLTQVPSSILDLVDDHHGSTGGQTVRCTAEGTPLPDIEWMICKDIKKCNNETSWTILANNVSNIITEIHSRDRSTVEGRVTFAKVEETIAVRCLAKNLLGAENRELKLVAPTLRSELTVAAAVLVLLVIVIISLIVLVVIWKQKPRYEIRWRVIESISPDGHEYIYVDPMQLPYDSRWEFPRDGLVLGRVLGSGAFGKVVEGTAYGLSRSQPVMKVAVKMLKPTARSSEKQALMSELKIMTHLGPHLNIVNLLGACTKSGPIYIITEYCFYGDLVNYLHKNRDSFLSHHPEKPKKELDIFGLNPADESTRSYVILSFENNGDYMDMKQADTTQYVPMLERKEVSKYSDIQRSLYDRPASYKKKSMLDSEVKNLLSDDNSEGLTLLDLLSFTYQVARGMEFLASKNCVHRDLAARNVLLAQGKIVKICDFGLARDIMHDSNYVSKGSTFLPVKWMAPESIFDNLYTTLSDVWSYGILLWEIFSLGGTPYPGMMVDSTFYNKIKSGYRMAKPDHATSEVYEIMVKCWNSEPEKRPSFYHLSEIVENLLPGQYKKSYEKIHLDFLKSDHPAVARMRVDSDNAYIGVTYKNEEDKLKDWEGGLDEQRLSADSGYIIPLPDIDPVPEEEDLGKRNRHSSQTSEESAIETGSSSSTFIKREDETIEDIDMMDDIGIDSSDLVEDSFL

B1: recombinant PDGF-BB (ligand, UniProt P01127 82-190, looked up)
chain: SLGSLTIAEPAMIAECKTRTEVFEISRRLIDRTNANFLVWPPCVEVQRCSGCCNNRNVQCRPTQVQLRPVQVRKIEIVRKKPIFKKATVTLEDHLACKCETVAAARPVT
notes: Homodimer of B chains; also called BB homodimer

Columns and labels:
[1] = target: human type α platelet derived growth factor receptor (T11 gene product) (human) (UniProt P16234); assay: ^125I-human PDGF binding to transfected COS-1 cells
[2] = target: human type α platelet derived growth factor receptor (T11 gene product) (human) (UniProt P16234); assay: ^125I-human PDGF binding to transfected COS-1 cells (FIG. 8)
[3] = target: human type α platelet derived growth factor receptor (T11 gene product) (human) (UniProt P16234); assay: competition of ^125I-human PDGF binding to transfected COS-1 cells
[4] = target: human type α platelet derived growth factor receptor (T11 gene product) (human) (UniProt P16234); assay: competition of ^125I-human PDGF binding to COS-1 cells transfected with T11 cDNA; 50-100 fold excess
[5] = target: human type α platelet derived growth factor receptor (T11 gene product) (human) (UniProt P16234); assay: radioligand binding to 32D transfectants

| Molecule | binding [1] | binding [2] | binding [3] | binding [4] | binding [5] |
| --- | --- | --- | --- | --- | --- |
| human PDGF isolated from human platelets (predominantly AB heterodimer) (from UniProt P04085 87-196; P01127 82-190) (ligand) | binds | binds | – | – | – |
| recombinant PDGF-AA (from UniProt P04085 87-211) (ligand) | – | – | binds | binds | – |
| B1 | – | – | binds | binds | binds |
